Reference: the supplement of paper PMC3334620
Over roughly 33,000 sequences, “E-score (-0.5 to 0.5)” has its median near -8e-05; the highest 2% begin near 0.23. Some of the results follow.

What follows are sequences tested against T1, Nrg2 (UniProt P38082) (assay: PBM E-score (8-mer binding enrichment) (E-score (-0.5 to 0.5)); higher = stronger / more preferred TF binding). Details: protein concentration: 100 nM; construct: GST-full length.
T1 sequence: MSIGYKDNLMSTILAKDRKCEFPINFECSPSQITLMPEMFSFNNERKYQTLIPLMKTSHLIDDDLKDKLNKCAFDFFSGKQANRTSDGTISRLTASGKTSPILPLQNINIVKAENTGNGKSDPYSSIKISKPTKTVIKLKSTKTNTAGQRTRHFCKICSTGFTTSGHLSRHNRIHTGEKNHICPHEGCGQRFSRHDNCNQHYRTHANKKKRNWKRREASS
Procedure, shortened: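 Using PURExpress in vitro transcription/translation, GST-tagged yeast transcription factors were made in full-length or DNA-binding-domain form. These were applied at about 100-200 nM to double-stranded universal all-10-mer Agilent arrays, and bound protein was detected with fluorescent anti-GST. Scans were normalised with masliner before the Universal PBM Analysis Suite assigned E-scores to ungapped eight-base words pooled with their reverse complements.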

Going from AGTGCAAT to ATCTATGA, the “PBM E-score” value rises from 0.0654 to 0.0668.

First: AGGCCCCG
Second: ATCTAGAG
The “PBM E-score” value of the first is lower: -0.277 for the first, -0.0164 for the second.

Compared with CGATTTGC, CCTAGACA is lower in “PBM E-score” value: 0.0454 for the first, -0.18 for the second.

Compared with CTCATAAA, ATACCTGA is higher in “PBM E-score” value: -0.0542 for the first, -0.0215 for the second.

Compared with AGAGCTCA, ACCTCATA is lower in “PBM E-score” value: 0.0121 for the first, 0.00476 for the second.

First: ATGTGTAG
Second: GCGATCGC
The “PBM E-score” value of the first is lower: 0.0278 for the first, 0.203 for the second.

Compared with GGAGGTAA, CTCGTGTA is higher in “PBM E-score” value: -0.0401 for the first, 0.0359 for the second.

Compared with GGCTTGAC, ACAATGAA is higher in “PBM E-score” value: -0.0364 for the first, 0.129 for the second.

Compared with AGCCGGTA, CGCTGTGA is higher in “PBM E-score” value: -0.122 for the first, -0.0408 for the second.

First: CCCCCCAG
Second: GATTACAA
The “PBM E-score” value of the first is lower: -0.493 for the first, -0.0354 for the second.

Compared with GGGACAGA, ATTGGTCG is higher in “PBM E-score” value: -0.126 for the first, 0.137 for the second.

Going from TCAAGCGA to CGCGACGC, the “PBM E-score” value falls from 0.0891 to -0.0782.

Going from CGTACTCA to CCGGCGCA, the “PBM E-score” value falls from 0.119 to 0.0667.

Going from CAAGACAC to ATAGCGTA, the “PBM E-score” value falls from 0.154 to 0.124.

First: CTTGCAAG
Second: CTGACGAC
The “PBM E-score” value of the first is higher: 0.181 for the first, 0.0249 for the second.

Going from TACCCTGA to ATATGTTA, the “PBM E-score” value falls from 0.265 to -0.112.

Compared with ACAGCATC, AATGAGGA is lower in “PBM E-score” value: 0.147 for the first, -0.141 for the second.

First: CACACCTC
Second: CCAATAGC
The “PBM E-score” value of the first is higher: -0.0243 for the first, -0.116 for the second.

First: CTGGACAG
Second: ACGTTCCC
The “PBM E-score” value of the first is higher: -0.0205 for the first, -0.104 for the second.

Going from ATTAATTG to CGTCCAAA, the “PBM E-score” value falls from 0.142 to 0.104.

Compared with AACTTGTG, AGAATCTA is lower in “PBM E-score” value: 0.194 for the first, -0.134 for the second.

Going from ATGGGAAG to AAACGATA, the “PBM E-score” value rises from -0.151 to 0.0265.

First: ATTTTAGG
Second: AGAGTGAG
The “PBM E-score” value of the first is lower: -0.0137 for the first, 0.0639 for the second.

First: CACCGACA
Second: AAAAGTAG
The “PBM E-score” value of the first is higher: 0.0704 for the first, 0.0358 for the second.

First: AACGGGTA
Second: CGGAGGAC
The “PBM E-score” value of the first is higher: 0.0396 for the first, -0.212 for the second.

First: ACTTGTCA
Second: AGCAAGAC
The “PBM E-score” value of the first is lower: 0.0495 for the first, 0.0975 for the second.

First: AAGTACTG
Second: GTGCCCGA
The “PBM E-score” value of the first is higher: -0.0715 for the first, -0.146 for the second.

First: ACACGCCG
Second: AAACACAA
The “PBM E-score” value of the first is higher: 0.134 for the first, 0.0433 for the second.

Going from ACATCCCG to CTTGCGTA, the “PBM E-score” value falls from 0.111 to 0.0548.

First: AGACGCGA
Second: AACCCTGG
The “PBM E-score” value of the first is lower: -0.0959 for the first, 0.315 for the second.

First: AGTGGGTG
Second: CTTTTTGA
The “PBM E-score” value of the first is higher: 0.151 for the first, -0.079 for the second.

First: CCTTGACA
Second: CGCTGTTA
The “PBM E-score” value of the first is higher: -0.0586 for the first, -0.115 for the second.

Compared with AATGTGTG, ACTTAGCC is lower in “PBM E-score” value: 0.132 for the first, 0.0119 for the second.

Going from ACATATCT to GTGTCGAA, the “PBM E-score” value falls from 0.112 to -0.0493.

First: CCACCACA
Second: CCGACTTA
The “PBM E-score” value of the first is lower: -0.114 for the first, -0.0638 for the second.

First: AACAAAGG
Second: AGCAGGAG
The “PBM E-score” value of the first is higher: 0.0899 for the first, -0.104 for the second.

First: AGAGTCAG
Second: ATTGTGTA
The “PBM E-score” value of the first is lower: -0.0182 for the first, 0.0935 for the second.

First: AACCTAAA
Second: AGATGATA
The “PBM E-score” value of the first is higher: 0.0784 for the first, -0.0384 for the second.

Going from CACACTTC to CCCGTCAA, the “PBM E-score” value falls from -0.0329 to -0.217.

Going from AGTAGACA to CATTGCCG, the “PBM E-score” value rises from -0.0452 to -0.00492.

Going from GATGAATA to AAACAGCT, the “PBM E-score” value falls from 0.158 to 0.00193.

Going from GAAGCAGA to GAAGCCAC, the “PBM E-score” value falls from 0.0381 to -0.1.

Going from AGGTACGA to AATGAATC, the “PBM E-score” value rises from -0.137 to 0.0329.

Compared with CATGAGTC, TAGAGCCA is lower in “PBM E-score” value: 0.038 for the first, -0.177 for the second.

First: CACTTCTG
Second: GCTACGAC
The “PBM E-score” value of the first is lower: -0.0763 for the first, -0.0518 for the second.

First: AGCTGCTA
Second: CACTAATC
The “PBM E-score” value of the first is lower: 0.0939 for the first, 0.22 for the second.

Going from CATTTTTA to CAGCGCGC, the “PBM E-score” value rises from -0.0648 to 0.21.

Compared with AACGACTC, ACCGGCAG is higher in “PBM E-score” value: -0.253 for the first, -0.192 for the second.

Compared with CTGGAAAC, GCTACACA is lower in “PBM E-score” value: -0.0687 for the first, -0.185 for the second.

First: CTACATTC
Second: GCCCGTCA
The “PBM E-score” value of the first is higher: -0.195 for the first, -0.211 for the second.

First: GGAAAACC
Second: CTATTCCC
The “PBM E-score” value of the first is higher: 0.0753 for the first, -0.0598 for the second.

Going from ATTGGGAA to GCGGCCCA, the “PBM E-score” value falls from 0.0309 to -0.0651.

First: GACGTTCA
Second: TGCTTTAA
The “PBM E-score” value of the first is lower: -0.177 for the first, 0.0552 for the second.

First: CATGTTCA
Second: AATCCTGA
The “PBM E-score” value of the first is higher: 0.0756 for the first, -0.0127 for the second.

Compared with CCGAGTGC, CCCTTACA is higher in “PBM E-score” value: 0.0883 for the first, 0.0954 for the second.

Compared with CGTATACA, CACGAATC is higher in “PBM E-score” value: -0.0377 for the first, 0.188 for the second.

Compared with ATCGTTCG, GAGCCCTA is lower in “PBM E-score” value: 0.0332 for the first, -0.149 for the second.

First: ATTAGTAA
Second: GTTCTTGA
The “PBM E-score” value of the first is higher: 0.245 for the first, -0.00879 for the second.

First: GCGTCGAC
Second: CATCCATC
The “PBM E-score” value of the first is higher: 0.222 for the first, 0.0146 for the second.

Going from AGGGAATA to ATGCATGG, the “PBM E-score” value falls from 0.245 to 0.0766.

Compared with TATATATA, AGACCTCC is lower in “PBM E-score” value: 0.269 for the first, -0.377 for the second.

Compared with CAAGCATC, GTAAGTTA is lower in “PBM E-score” value: 0.0334 for the first, -0.0275 for the second.

Compared with ATCTGGTA, ACGTACGC is lower in “PBM E-score” value: -0.0223 for the first, -0.158 for the second.

Going from ACAAGGAC to CGTTATTA, the “PBM E-score” value rises from -0.0546 to 0.207.

First: CTCGTCTC
Second: CTCTTCAG
The “PBM E-score” value of the first is lower: 0.0913 for the first, 0.109 for the second.

Going from GAAGTGGC to CGTTTGTA, the “PBM E-score” value falls from 0.0999 to 0.0634.

Going from GCCGTTTA to CCTACGGA, the “PBM E-score” value falls from -0.00865 to -0.347.

Compared with CCGACATC, ATGTTCAC is higher in “PBM E-score” value: -0.0241 for the first, 0.083 for the second.

First: AGGCGCTG
Second: GAGAATCA
The “PBM E-score” value of the first is lower: -0.0225 for the first, 0.0788 for the second.

First: TATCCGCA
Second: GATGTCAA
The “PBM E-score” value of the first is higher: 0.0982 for the first, -0.0198 for the second.

Compared with CATGGGGA, ATTCCAGA is lower in “PBM E-score” value: 0.135 for the first, -0.0957 for the second.

First: AGTGCGGG
Second: CATGCTCC
The “PBM E-score” value of the first is higher: 0.14 for the first, -0.19 for the second.

Compared with AGTACTAG, TGGAAAAA is lower in “PBM E-score” value: 0.0457 for the first, 0.00931 for the second.

Going from CGACCAAG to AGAACAGA, the “PBM E-score” value rises from -0.0234 to 0.00692.

First: CTTTTGAC
Second: ACCCTTAC
The “PBM E-score” value of the first is lower: -0.105 for the first, 0.2 for the second.

First: CGATAAAA
Second: CCTCAGGC
The “PBM E-score” value of the first is lower: -0.0976 for the first, -0.0134 for the second.

Compared with AACCTTGC, CTTTCAAC is higher in “PBM E-score” value: -0.0724 for the first, 0.052 for the second.

First: CGGACTCC
Second: AGGGTTAG
The “PBM E-score” value of the first is lower: -0.0829 for the first, 0.081 for the second.

First: ACATATGA
Second: GTCGTCCA
The “PBM E-score” value of the first is lower: 0.0473 for the first, 0.146 for the second.

Going from AAGACCGG to CGGTGAAC, the “PBM E-score” value rises from -0.155 to -0.0678.

Compared with CGATATAG, ACGTCACA is lower in “PBM E-score” value: 0.14 for the first, 0.0772 for the second.

First: CAGCTAGG
Second: CACGTCTG
The “PBM E-score” value of the first is lower: -0.0907 for the first, 0.0439 for the second.

Compared with GCGGAACA, GGGCGACC is higher in “PBM E-score” value: -0.00653 for the first, -0.00032 for the second.

First: AAATACAC
Second: CAACTGCA
The “PBM E-score” value of the first is lower: 0.0316 for the first, 0.0432 for the second.

First: AGCGCCCC
Second: CTTTGTTA
The “PBM E-score” value of the first is lower: -0.166 for the first, 0.109 for the second.

Compared with CACGCTCG, AGTGCAAA is higher in “PBM E-score” value: -0.0978 for the first, 0.258 for the second.
